According to US6387605B1, “Co-developers for black-and-white photothermographic elements” (Eastman Kodak Company, priority 1999, dated 2002):

Tests used:
[1] = Sensitometry of photothermographic elements, co-developer incorporated in the photothermographic emulsion layer (Example 4); design: key to AC-3 / AC-1 / Speed 2: *: Speed-2, AC-1, and AC-3 were too low to measure
[2] = Sensitometry of photothermographic elements, co-developer added to topcoat solution (Examples 1-3)
[3] = 0.040 g in 60 g photothermographic emulsion (sample 4-6)
[4] = Example 4, in photothermographic emulsion layer
[5] = in 60 g photothermographic emulsion: 0.083 g I-01, 0.030 g CI-01, 0.038 g CI-02, 0.020 g N-Ethyl-rhodanine (sample 4-5)
[6] = Example 2, in 20 g topcoat solution: 83 mg I-01, 17 mg I-02, 112 mg I-04, 8.8 mg CN-08, 8.0 mg CN-14, developed 15 seconds at 255° F.
[7] = Example 3, in 20 g topcoat solution: 83 mg I-01, 17 mg I-02, 112 mg I-04, 8.8 mg CN-08, 8.0 mg CN-14, developed 25 seconds at 255° F.
[8] = 10 mg in 20 g topcoat solution, developed 15 seconds at 255° F.
[9] = 89 mg in 20 g topcoat solution, developed 15 seconds at 255° F.
[10] = 114 mg in 20 g topcoat solution, developed 15 seconds at 255° F.

Q: With `CCN1C(=O)CSC1=S` [N-Ethyl-rhodanine] as the compound, how does the AC-1 [1, 3] read?
A: The AC-1 was “*”.

Q: What about the AC-3 [1, 3] of the same compound?
A: Its AC-3 is “*”.

Q: What about the Dmax [1, 3] of the same compound?
A: Its Dmax is 4.936.

Q: What about the Dmin [1, 3] of the same compound?
A: The Dmin was 4.140.

Q: What about the “Speed 2” value [1, 3] of the same compound?
A: The value was “*”.

Q: What about the “Dmin (in words; appears to generate a fogging agent)” value [1, 4] of the same compound?
A: The value was “high”.

Q: What about the “contrast enhancement (in words)” value [1, 4] of the same compound?
A: Its value is “no contrast enhancement”.

Q: And the AC-1 [1, 5]?
A: Its AC-1 is “*”.

Q: What about the AC-3 [1, 5] of the same compound?
A: Its AC-3 is “*”.

Q: What about the Dmax [1, 5] of the same compound?
A: Its Dmax is 4.638.

Q: And the Dmin [1, 5]?
A: The Dmin was 3.373.

Q: What about the “Speed 2” value [1, 5] of the same compound?
A: The value was “*”.

Q: Which Dmax [1, 5] does the source give for `CCOC=C1C(=O)c2ccccc2C1=O` [Compound I-01, 2-(Ethoxymethylene)-1H-indene-1,3(2H)-dione] here?
A: The Dmax was 4.668.

Q: And the Dmin [1, 5]?
A: The Dmin was 0.180.

Q: Which results are given for `COC(=O)/C(C#N)=C\[O][NaH2-2]` [CN-14, reference compound]?
A: Dmax [2, 6]: 4.753; Dmin [2, 6]: 0.179; Dmax [2, 7]: 4.987; Dmin [2, 7]: 0.201

Q: For `CCO/C=C1\SC(=S)N(Cc2ccccc2)C1=O` [CI-01, 5-(Ethoxymethylene)-3-(phenylmethyl)-2-thioxo-4-thiazolidinone, reference compound], which Dmax [2, 8] is on record?
A: The Dmax was 2.920.

Q: And the Dmin [2, 8]?
A: The Dmin was 0.393.

Q: And the Speed-2 [2, 8]?
A: The Speed-2 was 1.720.

Q: What about the Dmax [2, 9] of the same compound?
A: The Dmax was 2.185.

Q: What about the Dmin [2, 9] of the same compound?
A: Its Dmin is 0.881.

Q: And the Speed-2 [2, 9]?
A: Its Speed-2 is 0.758.

Q: And the AC-3 [1, 5]?
A: The AC-3 was “*”.

Q: What about the Dmax [1, 5] of the same compound?
A: Its Dmax is 2.678.

Q: What about the Dmin [1, 5] of the same compound?
A: The Dmin was 0.532.

Q: Which Dmax [2, 10] does the source give for `CCO/C=C1\SC(=S)N(CC)C1=O` [CI-02, 5-(Ethoxymethylene)-3-ethyl-2-thioxo-4-thiazolidinone] here?
A: Its Dmax is 2.528.

Q: And the Dmin [2, 10]?
A: Its Dmin is 0.862.

Q: And the Speed-2 [2, 10]?
A: The Speed-2 was 1.250.

Q: What about the AC-1 [1, 5] of the same compound?
A: Its AC-1 is “*”.

Q: What about the AC-3 [1, 5] of the same compound?
A: Its AC-3 is “*”.

Q: And the Dmax [1, 5]?
A: Its Dmax is 3.062.

Q: And the Dmin [1, 5]?
A: The Dmin was 1.005.
